Source: paper PMC4299599, “Quantification of cytosolic interactions identifies Ede1 oligomers as key organizers of endocytosis” (Molecular Systems Biology, 2014)
These are yes or no findings as the source states them, for the method shown. Some binding calls cover weakened binding; strength is not graded here. For some assays here: Where a sequence is shown, tags or fusion partners need not be part of it.

T1: Syp1 (S. cerevisiae), P25623
T1 chain: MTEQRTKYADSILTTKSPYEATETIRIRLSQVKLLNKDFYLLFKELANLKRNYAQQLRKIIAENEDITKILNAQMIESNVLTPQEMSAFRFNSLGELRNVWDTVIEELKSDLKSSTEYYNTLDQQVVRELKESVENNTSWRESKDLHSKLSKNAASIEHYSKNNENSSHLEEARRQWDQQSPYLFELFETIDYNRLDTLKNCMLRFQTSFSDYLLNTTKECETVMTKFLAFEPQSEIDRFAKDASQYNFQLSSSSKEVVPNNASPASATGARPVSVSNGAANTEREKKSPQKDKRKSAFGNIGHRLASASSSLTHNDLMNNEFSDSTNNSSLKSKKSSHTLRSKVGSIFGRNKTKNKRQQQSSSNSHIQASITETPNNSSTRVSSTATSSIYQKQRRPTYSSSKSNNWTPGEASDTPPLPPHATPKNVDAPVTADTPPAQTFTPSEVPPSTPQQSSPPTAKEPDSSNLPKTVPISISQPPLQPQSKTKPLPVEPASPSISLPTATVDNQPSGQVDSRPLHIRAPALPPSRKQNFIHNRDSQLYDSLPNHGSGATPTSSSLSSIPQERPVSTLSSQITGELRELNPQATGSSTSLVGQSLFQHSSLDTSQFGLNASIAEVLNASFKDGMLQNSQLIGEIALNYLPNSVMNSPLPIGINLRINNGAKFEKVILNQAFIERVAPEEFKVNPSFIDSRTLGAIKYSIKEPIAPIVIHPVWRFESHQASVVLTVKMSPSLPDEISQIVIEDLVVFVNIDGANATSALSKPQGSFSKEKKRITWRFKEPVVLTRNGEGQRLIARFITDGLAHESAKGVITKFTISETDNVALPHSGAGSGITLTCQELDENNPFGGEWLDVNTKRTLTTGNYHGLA

T2: Sla1 (S. cerevisiae), P32790
T2 chain: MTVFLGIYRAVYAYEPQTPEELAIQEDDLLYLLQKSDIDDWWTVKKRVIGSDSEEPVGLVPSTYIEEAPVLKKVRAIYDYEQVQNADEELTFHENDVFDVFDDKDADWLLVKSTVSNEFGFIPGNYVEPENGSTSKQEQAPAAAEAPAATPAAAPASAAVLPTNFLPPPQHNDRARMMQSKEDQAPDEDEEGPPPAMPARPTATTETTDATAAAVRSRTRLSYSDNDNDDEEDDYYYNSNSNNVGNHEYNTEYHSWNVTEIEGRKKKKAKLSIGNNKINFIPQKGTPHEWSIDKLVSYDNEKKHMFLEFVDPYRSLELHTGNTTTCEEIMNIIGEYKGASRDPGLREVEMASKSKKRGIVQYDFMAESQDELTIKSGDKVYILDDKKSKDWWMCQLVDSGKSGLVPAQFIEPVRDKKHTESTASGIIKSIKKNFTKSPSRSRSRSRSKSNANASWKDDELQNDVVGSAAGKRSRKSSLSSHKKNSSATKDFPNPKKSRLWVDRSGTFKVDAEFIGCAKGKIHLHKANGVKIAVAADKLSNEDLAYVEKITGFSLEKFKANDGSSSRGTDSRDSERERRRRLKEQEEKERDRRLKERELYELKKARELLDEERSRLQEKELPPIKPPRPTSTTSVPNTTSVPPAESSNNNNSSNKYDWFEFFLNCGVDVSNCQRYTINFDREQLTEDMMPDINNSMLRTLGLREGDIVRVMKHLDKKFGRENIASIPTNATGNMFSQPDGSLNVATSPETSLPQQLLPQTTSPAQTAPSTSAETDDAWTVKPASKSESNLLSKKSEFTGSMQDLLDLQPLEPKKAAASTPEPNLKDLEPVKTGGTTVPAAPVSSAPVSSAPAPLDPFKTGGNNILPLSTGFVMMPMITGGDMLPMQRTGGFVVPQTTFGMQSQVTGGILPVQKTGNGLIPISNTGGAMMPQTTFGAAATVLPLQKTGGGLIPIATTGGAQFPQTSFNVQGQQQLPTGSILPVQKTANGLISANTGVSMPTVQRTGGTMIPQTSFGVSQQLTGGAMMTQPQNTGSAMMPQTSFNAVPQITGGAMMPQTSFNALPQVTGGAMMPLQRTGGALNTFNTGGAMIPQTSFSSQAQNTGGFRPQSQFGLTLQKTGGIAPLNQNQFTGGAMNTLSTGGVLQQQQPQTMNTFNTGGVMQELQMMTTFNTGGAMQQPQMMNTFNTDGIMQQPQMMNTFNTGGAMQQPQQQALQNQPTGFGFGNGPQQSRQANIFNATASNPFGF

T3: Ede1Δ591–1381-TAP (S. cerevisiae) (UniProt P34216)
T3 sequence: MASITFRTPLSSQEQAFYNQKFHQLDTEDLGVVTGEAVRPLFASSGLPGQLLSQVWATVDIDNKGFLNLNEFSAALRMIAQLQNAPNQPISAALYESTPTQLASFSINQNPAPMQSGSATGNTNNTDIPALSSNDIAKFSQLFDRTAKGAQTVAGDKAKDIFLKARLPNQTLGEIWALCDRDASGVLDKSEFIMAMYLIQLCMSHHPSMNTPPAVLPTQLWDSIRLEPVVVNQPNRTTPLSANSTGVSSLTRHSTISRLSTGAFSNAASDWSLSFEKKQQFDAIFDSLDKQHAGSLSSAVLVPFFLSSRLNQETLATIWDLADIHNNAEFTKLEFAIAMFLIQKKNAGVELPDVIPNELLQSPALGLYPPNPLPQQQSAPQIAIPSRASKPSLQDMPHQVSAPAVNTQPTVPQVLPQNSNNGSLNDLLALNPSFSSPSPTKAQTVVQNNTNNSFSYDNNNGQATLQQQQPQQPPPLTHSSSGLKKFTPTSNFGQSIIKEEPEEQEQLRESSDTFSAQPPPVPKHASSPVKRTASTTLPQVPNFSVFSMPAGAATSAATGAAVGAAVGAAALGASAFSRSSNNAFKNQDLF


Experiments:
[1] = molecular target: T1, Syp1 (S. cerevisiae), P25623; experiment: condition: detection range of FCCS: apparent KD up to ~1 μM; fluorescence cross-correlation spectroscopy (FCCS); self-interaction: living diploid yeast cells with one allele fused to (3)myeGFP and one to (3)mCherry, cytoplasm; apparent (effective) KD, to be taken as the upper limit since complexes of one colour are not seen; conditions: remark: other sources report otherwise
[2] = molecular target: T1, Syp1 (S. cerevisiae), P25623; experiment: condition: 1000 nM (only Kdeff-values < 1000 nM are shown); fluorescence cross-correlation spectroscopy (FCCS); in the cytoplasm of living yeast cells; first-named protein green (3myeGFP or 1myeGFP; eGFP for Don1), second red (3mCherry); self-interaction in diploid strains with one allele of each colour; apparent or effective KD (Kdeff) from single-cell measurements; only Kdeff values < 1000 nM are shown; values for …; conditions: remark: other sources report otherwise
[3] = molecular target: T2, Sla1 (S. cerevisiae), P32790; experiment: as above; conditions: remark: other sources report otherwise
[4] = molecular target: T3, Ede1Δ591–1381-TAP (S. cerevisiae); experiment: tandem affinity purification (TAP) with immunoblot; diploid strain with a TAP-tagged and a GFP-tagged allele; purified proteins on SDS–PAGE, immunoblotted with α-GFP and α-TAP
[5] = molecular target: Ede1 (Ede1-TAP / Ede1-GFP) (S. cerevisiae) (UniProt P34216); experiment: as above

binding [1] | binding [2] | binding [3] | binding [4] | binding [5] | Binder
no binding | no binding | no binding | – | – | Syp1 (natural protein, S. cerevisiae, UniProt P25623 1-870, looked up, Syp1, S. cerevisiae endocytic adaptor; Each copy carries one of the two tags; also called Syp1-3myeGFP; source: S. cerevisiae, chromosomally tagged at the endogenous locus, in living cells; not shown: 3myeGFP, C-terminal, kept; 3mCherry, C-terminal, kept) MTEQRTKYADSILTTKSPYEATETIRIRLSQVKLLNKDFYLLFKELANLKRNYAQQLRKIIAENEDITKILNAQMIESNVLTPQEMSAFRFNSLGELRNVWDTVIEELKSDLKSSTEYYNTLDQQVVRELKESVENNTSWRESKDLHSKLSKNAASIEHYSKNNENSSHLEEARRQWDQQSPYLFELFETIDYNRLDTLKNCMLRFQTSFSDYLLNTTKECETVMTKFLAFEPQSEIDRFAKDASQYNFQLSSSSKEVVPNNASPASATGARPVSVSNGAANTEREKKSPQKDKRKSAFGNIGHRLASASSSLTHNDLMNNEFSDSTNNSSLKSKKSSHTLRSKVGSIFGRNKTKNKRQQQSSSNSHIQASITETPNNSSTRVSSTATSSIYQKQRRPTYSSSKSNNWTPGEASDTPPLPPHATPKNVDAPVTADTPPAQTFTPSEVPPSTPQQSSPPTAKEPDSSNLPKTVPISISQPPLQPQSKTKPLPVEPASPSISLPTATVDNQPSGQVDSRPLHIRAPALPPSRKQNFIHNRDSQLYDSLPNHGSGATPTSSSLSSIPQERPVSTLSSQITGELRELNPQATGSSTSLVGQSLFQHSSLDTSQFGLNASIAEVLNASFKDGMLQNSQLIGEIALNYLPNSVMNSPLPIGINLRINNGAKFEKVILNQAFIERVAPEEFKVNPSFIDSRTLGAIKYSIKEPIAPIVIHPVWRFESHQASVVLTVKMSPSLPDEISQIVIEDLVVFVNIDGANATSALSKPQGSFSKEKKRITWRFKEPVVLTRNGEGQRLIARFITDGLAHESAKGVITKFTISETDNVALPHSGAGSGITLTCQELDENNPFGGEWLDVNTKRTLTTGNYHGLA
– | – | – | no binding | binds | Ede1 (Ede1-TAP / Ede1-GFP) (protein, UniProt P34216 1-1381) MASITFRTPLSSQEQAFYNQKFHQLDTEDLGVVTGEAVRPLFASSGLPGQLLSQVWATVDIDNKGFLNLNEFSAALRMIAQLQNAPNQPISAALYESTPTQLASFSINQNPAPMQSGSATGNTNNTDIPALSSNDIAKFSQLFDRTAKGAQTVAGDKAKDIFLKARLPNQTLGEIWALCDRDASGVLDKSEFIMAMYLIQLCMSHHPSMNTPPAVLPTQLWDSIRLEPVVVNQPNRTTPLSANSTGVSSLTRHSTISRLSTGAFSNAASDWSLSFEKKQQFDAIFDSLDKQHAGSLSSAVLVPFFLSSRLNQETLATIWDLADIHNNAEFTKLEFAIAMFLIQKKNAGVELPDVIPNELLQSPALGLYPPNPLPQQQSAPQIAIPSRASKPSLQDMPHQVSAPAVNTQPTVPQVLPQNSNNGSLNDLLALNPSFSSPSPTKAQTVVQNNTNNSFSYDNNNGQATLQQQQPQQPPPLTHSSSGLKKFTPTSNFGQSIIKEEPEEQEQLRESSDTFSAQPPPVPKHASSPVKRTASTTLPQVPNFSVFSMPAGAATSAATGAAVGAAVGAAALGASAFSRSSNNAFKNQDLFADGEASAQLSNATTEMANLSNQVNSLSKQASITNDKKSRATQELKRVTEMKNSIQIKLNNLRSTHDQNVKQTEQLEAQVLQVNKENETLAQQLAVSEANYHAAESKLNELTTDLQESQTKNAELKEQITNLNSMTASLQSQLNEKQQQVKQERSMVDVNSKQLELNQVTVANLQKEIDGLGEKISVYLTKQKELNDYQKTVEEQHAQLQAKYQDLSNKDTDLTDREKQLEERNRQIEEQENLYHQHVSKLQEMFDDLSQRKASFEKADQELKERNIEYANNVRELSERQMNLAMGQLPEDAKDIIAKSASNTDTTTKEATSRGNVHEDTVSKFVETTVENSNLNVNRVKDDEEKTERTESDVFDRDVPTLGSQSDSENANTNNGTQSGNETANPNLTETLSDRFDGDLNEYGIPRSQSLTSSVANNAPQSVRDDVELPETLEERDTINNTANRDNTGNLSHIPGEWEATPATASTDVLSNETTEVIEDGSTTKRANSNEDGESVSSIQESPKISAQPKAKTINEEFPPIQELHIDESDSSSSDDDEFEDTREIPSATVKTLQTPYNAQPTSSLEIHTEQVIKYPAPGTSPSHNEGNSKKASTNSILPVKDEFDDEFAGLEQAAVEEDNGADSESEFENVANAGSMEQFETIDHKDLDDELQMNAFTGTLTSSSNPTIPKPQVQQQSTSDPAQVSNDEWDEIFAGFGNSKAEPTKVATPSIPQQPIPLKNDPIVDASLSKGPIVNRGVATTPKSLAVEELSGMGFTEEEAHNALEKCNWDLEAATNFLLDSA
